# The list does not hold the whole screen: it gathers tests that were run many times, whatever their T/C, doses with no T/C, and many T/C values between a quarter and a half above the control. Other doses and runs of a compound stand elsewhere. T/C: endpoint of the treated group in % of that of the vehicle group. Some entries give survivors of the animals treated and no T/C: the source holds a T/C of zero for them, seemingly a mark for toxic or unscored doses. Some survivor counts are full or nearly so, which does not show that the dose was tolerated: survival well below the control is almost never listed, so the zero probably covers shortened survival too. Counts of survivors are from the toxicity check (mostly the fifth day) where no day follows; animals may have died later. Schedules are NCI's codes, read here as Q, the interval in days (D) or hours (H), X, the number of doses. For survival time, this PubChem deposit counts one and a half times the control or more as active, and values a quarter to a half above the control carry no call in these data; other NCI protocols may use other cut-offs. Some entries were tested several times; the values are given in rising order.
# Tested on: P388 leukemia ip, CD2F1 mice, survival T/C
# Test: NCI In Vivo Anticancer Drug Screen. Data for tumor model P388 Leukemia (intraperitoneal) in CD2F1 (CDF1) mice
# Conditions: T/C endpoint: median survival time, higher T/C = longer survival
compound,measurement,setting,value
CO[Si](CCCN)(OC)OC,survivor count,"dose: 400.0 mg/kg/injection, schedule: Q01DX009 (ip), vehicle: saline",0 of 6
Cc1ccc(F)cc1NC(=S)NN,survivor count,"dose: 60.0 mg/kg/injection, schedule: Q01DX005 (ip), vehicle: Klucel (hydroxypropylcellulose) (HPC)",0 of 6
same,survivor count,"dose: 120.0 mg/kg/injection, schedule: Q01DX005 (ip), vehicle: Klucel (hydroxypropylcellulose) (HPC)",0 of 6
same,survivor count,"dose: 240.0 mg/kg/injection, schedule: Q01DX005 (ip), vehicle: Klucel (hydroxypropylcellulose) (HPC)",0 of 6
CC(=O)Nn1c(N)nc2cc(C)ccc21,survivor count,"dose: 100.0 mg/kg/injection, schedule: Q01DX001 (ip), vehicle: saline",6 of 6
O=C1C=Cc2ccc(O)cc2C1=O,survivor count,"dose: 5.0 mg/kg/injection, schedule: Q01DX009 (ip), vehicle: saline",3 of 6
same,survivor count,"dose: 10.0 mg/kg/injection, schedule: Q04DX003 (ip), vehicle: saline with Tween-80",2 of 6
same,survivor count,"dose: 20.0 mg/kg/injection, schedule: Q04DX003 (ip), vehicle: saline with Tween-80",0 of 6
same,survivor count,"dose: 100.0 mg/kg/injection, schedule: Q04DX003 (ip), vehicle: saline with Tween-80",0 of 6
same,survivor count,"dose: 200.0 mg/kg/injection, schedule: Q04DX003 (ip), vehicle: saline with Tween-80",0 of 6
same,survivor count,"dose: 400.0 mg/kg/injection, schedule: Q04DX003 (ip), vehicle: saline with Tween-80",0 of 6
COc1cccc2c1C(=O)c1c(O)c3c(c(O)c1C2=O)CC(O)(C(C)=O)CC3OC1CC(NCC2(O)OCC(O)C(O)C2O)C(O)C(C)O1 (stereo unspecified),T/C,"dose: 25.0 mg/kg/injection, schedule: Q04DX003 (ip), vehicle: water",126 % of control
same,T/C,"dose: 50.0 mg/kg/injection, schedule: Q04DX003 (ip), vehicle: water",134 and 137 % of control
same,T/C,"dose: 100.0 mg/kg/injection, schedule: Q04DX003 (ip), vehicle: water",134 % of control
COc1ccc(C(N)=O)cc1N=NN(C)C,survivor count,"dose: 100.0 mg/kg/injection, schedule: Q01DX009 (ip), vehicle: Klucel (hydroxypropylcellulose) (HPC)",6 of 6
O=C1Nc2ccccc2N=NN1CCCl,T/C,"dose: 50.0 mg/kg/injection, schedule: Q01DX005 (ip), vehicle: saline with Tween-80",125 % of control
same,T/C,"dose: 100.0 mg/kg/injection, schedule: Q01DX005 (ip), vehicle: saline with Tween-80",135 % of control
same,survivor count,"dose: 200.0 mg/kg/injection, schedule: Q01DX005 (ip), vehicle: saline with Tween-80",5 of 6
CN1C(=O)C23SSC1(C)C(=O)N2c1ccccc1C3(C)C (stereo unspecified),survivor count,"dose: 50.0 mg/kg/injection, schedule: Q01DX009 (ip), vehicle: suspension in saline",6 of 6
same,survivor count,"dose: 100.0 mg/kg/injection, schedule: Q01DX009 (ip), vehicle: saline",6 of 6
same,survivor count,"dose: 200.0 mg/kg/injection, schedule: Q01DX009 (ip), vehicle: saline",6 of 6
ClCCN(CCCl)CCOc1ccc(-c2nc3ccccc3[nH]2)cc1,T/C,"dose: 3.13 mg/kg/injection, schedule: Q04DX002 (ip), vehicle: saline with Tween-80",132 % of control
same,T/C,"dose: 6.25 mg/kg/injection, schedule: Q04DX002 (ip), vehicle: saline with Tween-80",131 % of control
same,survivor count,"dose: 12.5 mg/kg/injection, schedule: Q04DX002 (ip), vehicle: saline with Tween-80",3 of 6
same,survivor count,"dose: 25.0 mg/kg/injection, schedule: Q04DX002 (ip), vehicle: saline with Tween-80",0 of 6
same,survivor count,"dose: 100.0 mg/kg/injection, schedule: Q04DX002 (ip), vehicle: saline with Tween-80",0 of 6
same,survivor count,"dose: 200.0 mg/kg/injection, schedule: Q04DX002 (ip), vehicle: saline with Tween-80",0 of 6
same,survivor count,"dose: 400.0 mg/kg/injection, schedule: Q04DX002 (ip), vehicle: saline with Tween-80",0 of 6
CCN(CC)CC.CCOc1ccc(NC(=O)N=C=[N-])cc1.[CH-]1CCCCC1.[CH-]1CCCCC1.[CH-]1CCCCC1.[Cl-].[Sn+4],survivor count,"dose: 25.0 mg/kg/injection, schedule: Q01DX005 (ip), vehicle: Klucel (hydroxypropylcellulose) (HPC)",0 of 6
same,survivor count,"dose: 50.0 mg/kg/injection, schedule: Q01DX005 (ip), vehicle: Klucel (hydroxypropylcellulose) (HPC)",0 of 6
same,survivor count,"dose: 100.0 mg/kg/injection, schedule: Q01DX005 (ip), vehicle: Klucel (hydroxypropylcellulose) (HPC)",0 of 6
same,survivor count,"dose: 200.0 mg/kg/injection, schedule: Q01DX005 (ip), vehicle: Klucel (hydroxypropylcellulose) (HPC)",0 of 6
COc1ccc(N=N/N=c2\sc3cc(OC)ccc3n2C)cc1,T/C,"dose: 15.0 mg/kg/injection, schedule: Q01DX005 (ip), vehicle: saline with Tween-80",137 % of control
same,survivor count,"dose: 60.0 mg/kg/injection, schedule: Q01DX005 (ip), vehicle: saline with Tween-80",4 of 6
same,survivor count,"dose: 120.0 mg/kg/injection, schedule: Q01DX005 (ip), vehicle: saline with Tween-80",5 of 6
CSc1nc2cc(S(=O)(=O)C(F)F)ccc2s1,survivor count,"dose: 25.0 mg/kg/injection, schedule: Q01DX009 (ip), vehicle: Klucel (hydroxypropylcellulose) (HPC)",6 of 6

# From PubChem BioAssay AID330 (DTP/NCI, 2004)
